For three molecules, binding results are on record in publication PMC10266255.

Protein sequences, listed by entry. Tags and fused reporters are not part of them.
UniProt O60566: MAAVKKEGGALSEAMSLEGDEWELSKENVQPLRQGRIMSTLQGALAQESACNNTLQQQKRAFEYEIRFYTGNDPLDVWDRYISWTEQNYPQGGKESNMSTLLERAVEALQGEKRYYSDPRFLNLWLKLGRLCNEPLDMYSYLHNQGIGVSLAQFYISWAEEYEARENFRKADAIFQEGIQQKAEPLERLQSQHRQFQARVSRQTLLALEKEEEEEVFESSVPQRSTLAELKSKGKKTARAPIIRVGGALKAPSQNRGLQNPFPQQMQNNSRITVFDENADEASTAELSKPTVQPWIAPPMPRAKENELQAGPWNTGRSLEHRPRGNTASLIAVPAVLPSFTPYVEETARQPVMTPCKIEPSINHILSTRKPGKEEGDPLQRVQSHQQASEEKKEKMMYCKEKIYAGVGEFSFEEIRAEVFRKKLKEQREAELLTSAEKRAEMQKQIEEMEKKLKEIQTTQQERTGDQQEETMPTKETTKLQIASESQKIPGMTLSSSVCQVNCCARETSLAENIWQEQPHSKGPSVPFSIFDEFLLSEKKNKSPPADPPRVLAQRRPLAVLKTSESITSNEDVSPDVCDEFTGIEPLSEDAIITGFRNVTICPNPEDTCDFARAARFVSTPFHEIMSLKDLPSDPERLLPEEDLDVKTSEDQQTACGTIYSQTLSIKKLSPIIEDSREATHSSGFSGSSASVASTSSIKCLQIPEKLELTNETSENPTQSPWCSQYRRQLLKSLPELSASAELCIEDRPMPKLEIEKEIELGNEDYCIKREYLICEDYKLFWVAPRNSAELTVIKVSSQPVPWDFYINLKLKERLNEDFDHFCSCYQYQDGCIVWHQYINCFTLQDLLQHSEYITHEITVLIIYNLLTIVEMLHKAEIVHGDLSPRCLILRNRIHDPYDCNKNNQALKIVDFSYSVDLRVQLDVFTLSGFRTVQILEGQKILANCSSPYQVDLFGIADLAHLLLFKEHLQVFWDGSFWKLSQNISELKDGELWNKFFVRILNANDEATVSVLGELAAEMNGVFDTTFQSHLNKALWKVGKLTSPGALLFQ
UniProt O43684: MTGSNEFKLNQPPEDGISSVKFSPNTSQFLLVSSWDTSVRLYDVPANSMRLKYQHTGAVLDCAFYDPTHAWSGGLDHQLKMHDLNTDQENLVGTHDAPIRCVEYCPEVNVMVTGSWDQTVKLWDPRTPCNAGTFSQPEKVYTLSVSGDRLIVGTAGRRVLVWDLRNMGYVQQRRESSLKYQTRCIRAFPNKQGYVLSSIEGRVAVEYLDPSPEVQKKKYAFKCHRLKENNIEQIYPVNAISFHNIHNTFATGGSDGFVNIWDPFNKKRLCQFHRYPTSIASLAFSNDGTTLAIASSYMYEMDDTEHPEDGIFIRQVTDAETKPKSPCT

These are yes or no findings as the source states them, for the method shown. In cells and extracts the contact can be indirect. Some entries that bind do so weakly or less than the wild type. Sequences can lack the tags named with a protein.

The chains are these.
B1: proline-rich acidic protein 1 (PRAP1) (protein, UniProt Q96NZ9 21-151)
chain: VPAPKVPIKMQVKHWPSEQDPEKAWGARVVEPPEKDDQLVVLFPVQKPKLLTTEEKPRGQGRGPILPGTKAWMETEDTLGHVLSPEPDHDSLYHPPPEEDQGEERPRLWVMPNHQVLLGPEEDQDHIYHPQ
B2: EGFP-PRAP1 (protein, UniProt Q96NZ9 21-151)
chain: B1 chain

This experiment deals with budding uninhibited by benzimidazole-related 1 (BUBR1) (human (endogenous in HCT-116)) (UniProt O60566). In words: co-IP; BUBR1 antibody, Protein A agarose beads, RIPA lysate of colcemid-challenged HCT-116 cells (with or without exogenous PRAP1) and HCT-116/DDP cells (siNC or siPRAP1); primary antibody at 4 C overnight; western blot.
“budding uninhibited by benzimidazoles 3 (Bub3) (from UniProt O43684 1-328)”: the binding result was “binds”.
As for B1, the entry is “no binding”; as for B2, “no binding”.
